2 sequences from patent publication US10611797B2, “Peptide having anticancer activity, and pharmaceutical composition and dietary supplement composition for preventing and treating cancer, both of which contain same as active ingredient” (IUCF-HYU (INDUSTRY-UNIVERSITY COOPERATION FOUNDATION …, priority 2015, dated 2020) can be followed below.

Where a chain is given by its changes, count along the chain named. For part of these data: The comparison behind a weaker result is the experiment's own reference, which may not be listed here. Tags and fusion partners may be left off the protein sequences shown. For part of these data: The exact form of at least one protein or probe is not confirmed. For part of these data: At least one result comes from cells or an extract, where the contact may be indirect.

In one data set the target is T1, Flag-CP2c (UniProt Q9ERA0).
T1 sequence (looked up, limits assumed): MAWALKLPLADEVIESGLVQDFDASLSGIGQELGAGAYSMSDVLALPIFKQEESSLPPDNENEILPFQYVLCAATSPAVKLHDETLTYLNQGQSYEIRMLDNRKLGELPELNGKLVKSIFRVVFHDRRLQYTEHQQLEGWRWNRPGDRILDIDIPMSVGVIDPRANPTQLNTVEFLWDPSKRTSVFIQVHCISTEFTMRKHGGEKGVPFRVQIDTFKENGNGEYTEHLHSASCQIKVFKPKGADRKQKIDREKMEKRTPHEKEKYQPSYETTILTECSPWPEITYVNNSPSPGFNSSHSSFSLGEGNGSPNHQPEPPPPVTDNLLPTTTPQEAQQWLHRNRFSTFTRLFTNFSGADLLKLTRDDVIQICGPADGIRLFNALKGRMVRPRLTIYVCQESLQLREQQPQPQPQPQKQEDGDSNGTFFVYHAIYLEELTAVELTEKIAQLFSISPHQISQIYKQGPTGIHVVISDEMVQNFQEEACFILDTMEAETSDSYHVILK
The data set is described as follows: activity in cells. The following applies: luciferase reporter in 293T; transactivation inhibited by Peptide 5C and 5-2C; protein in cells; protein details: Flag, expressed in 293T.

Another data set concerns the target T2, GST-CP2c R339A (UniProt Q9ERA0).
T2 sequence (looked up, limits assumed): T1 sequence (looked up, limits assumed) with R339A
The data set is described as follows: pull-down. The following applies: DNA-IP; R339 stated important for DNA binding; purified recombinant protein; protein details: GST fusion, E. coli; label: 32P.

The target in a further data set is T3, GST-CP2c E332A (UniProt Q9ERA0).
T3 sequence (looked up, limits assumed): T1 sequence (looked up, limits assumed) with E332A
The data set is described as follows: pull-down. Particulars: DNA-IP; E332 stated important for DNA binding; purified recombinant protein; protein details: GST fusion, E. coli; label: 32P.

In a further data set the target is T4, GST-CP2c R341A (UniProt Q9ERA0).
T4 sequence (looked up, limits assumed): T1 sequence (looked up, limits assumed) with R341A
The data set is described as follows: pull-down. The following applies: DNA-IP; R341 stated important for DNA binding; purified recombinant protein; protein details: GST fusion, E. coli; label: 32P.

In another data set the target is T5, GST-CP2c R387A (UniProt Q9ERA0).
T5 sequence (looked up, limits assumed): T1 sequence (looked up, limits assumed) with R387A
The data set is described as follows: pull-down. The following applies: DNA-IP; R387 stated important for DNA binding; purified recombinant protein; protein details: GST fusion, E. coli; label: 32P.

The target in data set [1] is T6, CP2c (TFCP2) (Mus musculus) (UniProt Q9ERA0).
T6 sequence (looked up, limits assumed): T1 sequence (looked up, limits assumed)
The data set is described as follows: pull-down. Particulars: DNA immunoprecipitation with anti-CP2c; binding inhibited by Peptide 5 and Peptide 5-2, negligibly by Peptide 8 and 5-1; room temperature; protein in an …; label: 32P.

Regarding “CGAGTCCATCTGATAAGACTTATCTGCTGCCCCAGAGCAGGCCAGAGCTGGCGTAAGCCCCAG (double strand) [GATA-1 enhancer reporter, wild type CP2c sites]”, the “activity on this sequence” value with Flag-CP2c is on record as “active”.

Take “GATCCCAAGTTTTACTCGGTAGAGCAAGCACAAACCAGG (double strand) [alpha-globin promoter CP2c site probe]”: the binding result in the data set with GST-CP2c R339A is “binds more weakly”; with GST-CP2c E332A it was “binds more weakly”; with GST-CP2c R341A, “binds more weakly”; with GST-CP2c R387A, “binds more weakly”; in data set [1] it was “binds”.
